Test results published in US20160152704A1, “CADHERIN 15 AGONISTS” (THE UNIVERSITY OF BIRMINGHAM, priority 2013, published 2016).
These are yes or no findings as the source states them, for the method shown. For part of these data: In cells and extracts the contact can be indirect. Some entries that bind do so weakly or less than the wild type. For part of these data: Where a sequence is shown, tags or fusion partners need not be part of it.

T1: CDH15-FC protein (human) (UniProt P55291)
T1 sequence: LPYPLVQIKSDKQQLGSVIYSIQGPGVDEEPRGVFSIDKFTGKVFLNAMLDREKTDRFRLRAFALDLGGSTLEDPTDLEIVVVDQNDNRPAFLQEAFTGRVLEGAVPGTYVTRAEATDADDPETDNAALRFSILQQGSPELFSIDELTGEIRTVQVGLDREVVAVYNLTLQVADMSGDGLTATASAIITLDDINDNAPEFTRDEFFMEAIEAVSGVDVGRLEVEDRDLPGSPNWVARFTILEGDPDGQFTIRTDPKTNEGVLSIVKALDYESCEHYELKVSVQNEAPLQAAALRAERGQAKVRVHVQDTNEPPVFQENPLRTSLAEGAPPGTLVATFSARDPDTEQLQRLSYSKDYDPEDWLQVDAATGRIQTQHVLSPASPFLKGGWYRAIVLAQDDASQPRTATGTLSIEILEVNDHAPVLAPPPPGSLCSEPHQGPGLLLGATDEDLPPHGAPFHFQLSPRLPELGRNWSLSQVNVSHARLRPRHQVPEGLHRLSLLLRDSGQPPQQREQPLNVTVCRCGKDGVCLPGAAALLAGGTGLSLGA

T2: cadherin-15 (CDH15) of endothelial cells (HUVEC, HDMEC) (human) (UniProt P55291)
T2 sequence: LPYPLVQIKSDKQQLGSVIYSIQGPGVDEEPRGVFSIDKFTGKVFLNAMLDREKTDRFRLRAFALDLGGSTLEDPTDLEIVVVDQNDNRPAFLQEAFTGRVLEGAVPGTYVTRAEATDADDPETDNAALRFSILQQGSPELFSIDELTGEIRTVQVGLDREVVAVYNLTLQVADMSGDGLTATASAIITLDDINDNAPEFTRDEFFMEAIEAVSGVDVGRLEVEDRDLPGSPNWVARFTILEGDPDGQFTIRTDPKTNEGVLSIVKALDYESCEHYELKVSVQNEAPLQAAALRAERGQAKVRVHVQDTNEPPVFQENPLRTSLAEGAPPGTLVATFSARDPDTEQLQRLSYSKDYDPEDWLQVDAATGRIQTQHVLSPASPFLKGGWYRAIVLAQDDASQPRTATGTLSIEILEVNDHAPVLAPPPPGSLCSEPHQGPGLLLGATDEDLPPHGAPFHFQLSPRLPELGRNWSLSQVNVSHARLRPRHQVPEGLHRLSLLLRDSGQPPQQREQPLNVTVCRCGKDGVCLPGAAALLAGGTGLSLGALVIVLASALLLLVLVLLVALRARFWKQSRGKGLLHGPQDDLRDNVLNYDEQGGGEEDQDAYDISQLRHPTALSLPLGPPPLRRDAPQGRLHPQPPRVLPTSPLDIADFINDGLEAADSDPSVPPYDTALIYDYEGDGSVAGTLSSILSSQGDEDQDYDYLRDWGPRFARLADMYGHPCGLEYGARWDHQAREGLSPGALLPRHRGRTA


What was measured:
CDH15-FC protein (human) [1] = molecular target: T1, CDH15-FC protein (human); test: SPR, CDH15-FC immobilised on the chip
CDH15-FC protein (human) [2] = molecular target: T1, CDH15-FC protein (human); test: SPR (Biocore 3000), CDH15-FC immobilised, PEPITEM perfused at increasing concentration
[3] = molecular target: T2, cadherin-15 (CDH15) of endothelial cells (HUVEC, HDMEC) (human); test: pull-down of biotinylated PEPITEM from endothelial cells (HDMEC, HUVEC) on neutravidin columns, LC-MS/MS

Row | binding (CDH15-FC protein (human) [1]) | binding (CDH15-FC protein (human) [2]) | binding [3] | Binder
1 | binds | binds | – | SVTEQGAELSNEER [PEPITEM]
2 | – | – | binds | SVTEQGAELSNEER (biotin conjugate on the N-terminus) [PEPITEM with a biotin conjugate on the N-terminus]
